# Publication PMC4043820
# The chains behind the UniProt entries cited, without tags or fusion partners.
# UniProt A7BEY7, entry or part of it: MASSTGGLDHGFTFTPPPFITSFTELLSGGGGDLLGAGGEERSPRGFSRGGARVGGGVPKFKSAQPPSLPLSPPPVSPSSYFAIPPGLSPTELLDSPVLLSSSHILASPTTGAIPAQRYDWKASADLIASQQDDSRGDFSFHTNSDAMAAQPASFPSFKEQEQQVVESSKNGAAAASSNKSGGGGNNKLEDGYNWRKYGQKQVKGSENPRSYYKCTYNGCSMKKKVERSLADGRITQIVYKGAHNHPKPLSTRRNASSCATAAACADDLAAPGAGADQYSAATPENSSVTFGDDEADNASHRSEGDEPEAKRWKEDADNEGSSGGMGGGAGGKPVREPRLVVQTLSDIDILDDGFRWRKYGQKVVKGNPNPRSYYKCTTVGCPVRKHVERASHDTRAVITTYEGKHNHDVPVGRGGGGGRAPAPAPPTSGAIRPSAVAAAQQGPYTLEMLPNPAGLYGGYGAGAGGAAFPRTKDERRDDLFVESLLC
# The exact form of at least one protein or probe is not confirmed.
# Target: phospho-OsWRKY53 (Oryza sativa (rice)) (UniProt A7BEY7)
# Assay: EMSA
# Details: OsMPK6 + OsMKK4DD + ATP, no distinct difference from unphosphorylated; 12 mM HEPES-KOH pH 8.0, 60 mM KCl, 4 mM MgCl2, 1 mM EDTA, 12% glycerol, 1 mM DTT, 2.5 mM PMSF, 0.1 ug protein in 20 ul, 20 min on ice; recombinant protein; protein details: N-terminal Trx-His (pET-32b(+)); label: 32P 5' end label (unlabeled as competitor); probe letters rebuilt from the primers and the genome
sequence,measurement,value
TTTGGGGATGCTTCGGCGAAGGGGGTGAGGTCAAAGCTCGTGCGGTTTGACCGGTCAGACGAGGCGGCTGAGGCTCGCGC (double strand) [W-box probe (W)],binding result,binds
